# Assay results published in PMC6716823.
# By UniProt entry, the sequences of proteins in these tests, tags left out.
# UniProt P31751: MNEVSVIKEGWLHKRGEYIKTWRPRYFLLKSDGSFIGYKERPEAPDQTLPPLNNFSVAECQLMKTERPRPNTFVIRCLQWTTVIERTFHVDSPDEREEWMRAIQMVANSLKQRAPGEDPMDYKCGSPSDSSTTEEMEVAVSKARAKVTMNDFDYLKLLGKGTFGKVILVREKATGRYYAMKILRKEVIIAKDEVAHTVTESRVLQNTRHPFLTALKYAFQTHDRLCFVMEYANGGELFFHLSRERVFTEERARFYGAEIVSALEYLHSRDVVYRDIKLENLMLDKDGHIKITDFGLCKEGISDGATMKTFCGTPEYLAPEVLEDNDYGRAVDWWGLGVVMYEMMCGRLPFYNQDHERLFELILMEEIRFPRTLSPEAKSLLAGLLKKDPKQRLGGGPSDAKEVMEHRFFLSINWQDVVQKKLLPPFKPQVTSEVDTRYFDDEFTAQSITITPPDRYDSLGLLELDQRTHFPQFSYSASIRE
# UniProt Q9Y243: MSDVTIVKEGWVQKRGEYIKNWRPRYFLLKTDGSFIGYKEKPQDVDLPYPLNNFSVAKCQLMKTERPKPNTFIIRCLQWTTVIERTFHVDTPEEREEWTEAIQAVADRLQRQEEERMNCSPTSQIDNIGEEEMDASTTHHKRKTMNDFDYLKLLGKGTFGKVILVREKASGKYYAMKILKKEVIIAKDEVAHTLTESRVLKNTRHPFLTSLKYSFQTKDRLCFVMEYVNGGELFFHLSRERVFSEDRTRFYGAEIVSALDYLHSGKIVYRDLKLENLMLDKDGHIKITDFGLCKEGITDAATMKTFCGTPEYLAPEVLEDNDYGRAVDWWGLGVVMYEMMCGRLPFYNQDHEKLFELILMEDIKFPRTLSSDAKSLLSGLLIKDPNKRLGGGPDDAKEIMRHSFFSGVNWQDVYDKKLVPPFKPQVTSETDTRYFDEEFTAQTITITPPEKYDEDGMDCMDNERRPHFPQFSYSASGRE
# No constants are given. Whether binding was seen depends on the method and setting. Binding seen in cells or lysates may run through a third protein. Some results given as binding are weak or reduced against the parent protein; the word gives no strength.
# Assays:
# [1] = molecular target: T1, phosphorylated PDK1 (phosphoinositide-dependent kinase-1) (human (endogenous in HEK293T, U251, SW1783)) (UniProt O15530); assay: co-IP; U251 cells transfected with increasing doses of circ-AKT3; IP with AKT2, AKT3 and p-PDK1 antibodies, immunoblot
# T1 sequence (chain, phosphorylated (p-PDK1); site not printed): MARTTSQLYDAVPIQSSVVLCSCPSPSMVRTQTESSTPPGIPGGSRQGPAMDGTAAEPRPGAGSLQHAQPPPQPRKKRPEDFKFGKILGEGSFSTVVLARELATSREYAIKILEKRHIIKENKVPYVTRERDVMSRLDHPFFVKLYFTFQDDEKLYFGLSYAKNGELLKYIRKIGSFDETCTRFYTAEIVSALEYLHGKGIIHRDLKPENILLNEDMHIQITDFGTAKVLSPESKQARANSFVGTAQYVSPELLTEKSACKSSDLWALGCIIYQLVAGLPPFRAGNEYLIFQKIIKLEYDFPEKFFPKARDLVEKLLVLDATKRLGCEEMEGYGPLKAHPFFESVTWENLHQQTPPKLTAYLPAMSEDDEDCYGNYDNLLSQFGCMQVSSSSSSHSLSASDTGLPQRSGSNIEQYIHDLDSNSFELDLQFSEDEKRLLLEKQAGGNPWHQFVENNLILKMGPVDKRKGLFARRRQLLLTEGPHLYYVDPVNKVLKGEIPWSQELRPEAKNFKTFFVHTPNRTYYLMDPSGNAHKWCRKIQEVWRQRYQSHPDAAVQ
# [2] = molecular target: T1, phosphorylated PDK1 (phosphoinositide-dependent kinase-1) (human (endogenous in HEK293T, U251, SW1783)); assay: co-IP; SW1783 cells transfected with increasing doses of circ-AKT3 siRNA (legend: shRNA); IP with AKT2, AKT3 and p-PDK1 antibodies, immunoblot
binding [1],binding [2],Substance
binds,binds,AKT2 (from UniProt P31751 1-481) (enzyme)
binds,binds,AKT3 (from UniProt Q9Y243 1-479) (enzyme)
